The other results are listed elsewhere or left out.
Compound: Cc1ncc(-c2ccnc(Nc3ccc(S(C)(=O)=O)cc3)n2)n1C(C)C
Experiment: log2 fold change, soluble protein after heating vs DMSO (PISA); higher = thermal stabilisation; K562 cells, 10 uM, 30 min; active = over 0.2 and 3.5 SD of the protein, either way, in both replicates (recomputed)
Outline: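 K562 cells at 2×10^6 cells/mL were given 10 μM compound for 30 min. Aliquots then went through 3 min of heating across 48°C-58°C, were pooled, and were extracted in PBS with 0.5% NP-40 at 4°C, and the supernatant after 21,000xg for 90 min was quantified by TMTpro 16plex LC-MS/MS with channel sums equalised. Thermal stability relative to control samples, from duplicates, is given as log2 fold change.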

Sequences of proteins named here, by UniProt entry; tags and fusion partners are left off. A change or cut given only in a name is not applied to a line headed by its entry.
UniProt Q15067: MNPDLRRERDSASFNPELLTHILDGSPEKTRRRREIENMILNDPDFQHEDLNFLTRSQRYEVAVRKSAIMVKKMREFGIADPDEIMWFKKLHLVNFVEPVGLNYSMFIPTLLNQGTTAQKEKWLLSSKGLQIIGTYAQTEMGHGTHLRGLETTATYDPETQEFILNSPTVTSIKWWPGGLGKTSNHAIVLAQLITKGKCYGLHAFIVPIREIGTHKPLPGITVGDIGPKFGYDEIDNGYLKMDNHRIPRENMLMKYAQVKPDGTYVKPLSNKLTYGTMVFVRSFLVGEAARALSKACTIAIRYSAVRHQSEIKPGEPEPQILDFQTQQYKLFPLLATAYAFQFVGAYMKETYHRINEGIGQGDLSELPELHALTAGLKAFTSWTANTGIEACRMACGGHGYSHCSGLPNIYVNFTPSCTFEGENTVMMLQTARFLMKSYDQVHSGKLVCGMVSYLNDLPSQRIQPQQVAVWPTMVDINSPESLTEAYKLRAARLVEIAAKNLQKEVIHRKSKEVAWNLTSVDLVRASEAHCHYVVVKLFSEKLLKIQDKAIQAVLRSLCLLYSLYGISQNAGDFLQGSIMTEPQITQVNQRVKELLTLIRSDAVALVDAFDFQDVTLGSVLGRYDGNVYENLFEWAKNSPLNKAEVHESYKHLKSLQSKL
UniProt P16219: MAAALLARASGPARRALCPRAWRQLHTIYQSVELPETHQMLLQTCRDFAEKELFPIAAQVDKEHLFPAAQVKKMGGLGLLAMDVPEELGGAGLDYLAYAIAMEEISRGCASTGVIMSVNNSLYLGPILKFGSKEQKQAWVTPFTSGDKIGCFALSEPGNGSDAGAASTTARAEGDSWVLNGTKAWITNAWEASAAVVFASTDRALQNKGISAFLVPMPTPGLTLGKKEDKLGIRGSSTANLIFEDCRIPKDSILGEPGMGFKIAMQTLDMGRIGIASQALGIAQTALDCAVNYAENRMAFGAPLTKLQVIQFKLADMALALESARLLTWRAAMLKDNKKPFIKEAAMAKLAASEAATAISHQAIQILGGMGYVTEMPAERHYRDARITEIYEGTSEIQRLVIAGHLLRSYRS
UniProt P78536: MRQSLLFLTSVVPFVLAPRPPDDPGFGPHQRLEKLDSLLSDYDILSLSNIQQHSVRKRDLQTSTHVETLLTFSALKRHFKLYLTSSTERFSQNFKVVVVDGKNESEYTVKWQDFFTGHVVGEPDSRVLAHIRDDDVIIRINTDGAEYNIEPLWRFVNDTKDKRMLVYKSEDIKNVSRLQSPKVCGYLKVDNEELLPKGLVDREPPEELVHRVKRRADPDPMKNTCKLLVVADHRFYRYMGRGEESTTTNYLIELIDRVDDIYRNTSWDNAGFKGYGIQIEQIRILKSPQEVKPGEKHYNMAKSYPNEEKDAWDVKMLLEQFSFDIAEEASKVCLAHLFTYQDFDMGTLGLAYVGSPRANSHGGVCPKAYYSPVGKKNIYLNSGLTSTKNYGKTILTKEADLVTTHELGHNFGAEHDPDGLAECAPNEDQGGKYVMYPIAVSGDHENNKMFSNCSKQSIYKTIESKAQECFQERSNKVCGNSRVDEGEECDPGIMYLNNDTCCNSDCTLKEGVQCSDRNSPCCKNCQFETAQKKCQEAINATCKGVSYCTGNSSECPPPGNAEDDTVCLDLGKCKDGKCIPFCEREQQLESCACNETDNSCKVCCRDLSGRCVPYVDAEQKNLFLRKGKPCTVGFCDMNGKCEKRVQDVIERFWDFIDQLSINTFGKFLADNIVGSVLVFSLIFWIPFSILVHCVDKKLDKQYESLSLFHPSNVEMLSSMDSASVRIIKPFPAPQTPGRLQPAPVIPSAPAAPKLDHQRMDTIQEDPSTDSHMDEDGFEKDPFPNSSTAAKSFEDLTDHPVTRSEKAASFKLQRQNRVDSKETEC
UniProt O14734: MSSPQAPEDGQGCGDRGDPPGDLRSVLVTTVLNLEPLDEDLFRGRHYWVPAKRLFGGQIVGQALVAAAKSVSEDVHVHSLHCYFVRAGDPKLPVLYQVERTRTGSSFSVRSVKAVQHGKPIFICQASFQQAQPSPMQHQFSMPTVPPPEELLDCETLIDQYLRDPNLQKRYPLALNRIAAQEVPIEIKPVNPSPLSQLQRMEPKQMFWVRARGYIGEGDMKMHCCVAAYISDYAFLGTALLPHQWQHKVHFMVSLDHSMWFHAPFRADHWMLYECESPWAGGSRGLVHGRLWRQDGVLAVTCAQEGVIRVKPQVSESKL
UniProt Q9UKU7: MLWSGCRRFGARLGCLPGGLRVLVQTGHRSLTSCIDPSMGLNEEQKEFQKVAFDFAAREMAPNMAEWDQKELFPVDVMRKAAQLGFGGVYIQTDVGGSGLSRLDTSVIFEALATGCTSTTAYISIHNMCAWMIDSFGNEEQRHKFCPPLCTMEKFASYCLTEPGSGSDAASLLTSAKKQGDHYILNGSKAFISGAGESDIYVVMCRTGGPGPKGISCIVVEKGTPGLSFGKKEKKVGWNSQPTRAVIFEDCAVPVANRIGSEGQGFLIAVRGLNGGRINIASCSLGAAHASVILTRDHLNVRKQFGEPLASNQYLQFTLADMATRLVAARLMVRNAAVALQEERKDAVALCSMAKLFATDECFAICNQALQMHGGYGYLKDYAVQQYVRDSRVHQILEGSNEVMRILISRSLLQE
UniProt Q03154: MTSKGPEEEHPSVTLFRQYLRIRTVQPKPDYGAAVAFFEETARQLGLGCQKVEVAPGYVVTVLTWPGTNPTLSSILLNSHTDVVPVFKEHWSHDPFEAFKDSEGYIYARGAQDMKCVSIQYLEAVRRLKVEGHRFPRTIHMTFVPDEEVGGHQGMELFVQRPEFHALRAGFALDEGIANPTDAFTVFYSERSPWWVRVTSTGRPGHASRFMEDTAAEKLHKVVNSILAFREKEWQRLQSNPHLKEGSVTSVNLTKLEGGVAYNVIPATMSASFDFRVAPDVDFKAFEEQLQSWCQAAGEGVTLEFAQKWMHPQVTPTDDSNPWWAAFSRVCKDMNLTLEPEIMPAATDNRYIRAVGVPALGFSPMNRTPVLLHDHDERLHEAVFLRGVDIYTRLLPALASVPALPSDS
UniProt Q9NRN7: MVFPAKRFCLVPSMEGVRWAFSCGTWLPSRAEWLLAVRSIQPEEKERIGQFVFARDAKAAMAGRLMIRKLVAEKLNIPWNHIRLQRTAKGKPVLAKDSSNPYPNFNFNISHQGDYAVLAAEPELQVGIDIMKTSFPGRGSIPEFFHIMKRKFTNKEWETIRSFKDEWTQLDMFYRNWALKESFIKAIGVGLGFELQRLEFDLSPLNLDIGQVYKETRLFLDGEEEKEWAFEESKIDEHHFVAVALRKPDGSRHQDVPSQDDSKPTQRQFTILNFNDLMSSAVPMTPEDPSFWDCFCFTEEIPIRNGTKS
UniProt O96019, whole entry, looked up: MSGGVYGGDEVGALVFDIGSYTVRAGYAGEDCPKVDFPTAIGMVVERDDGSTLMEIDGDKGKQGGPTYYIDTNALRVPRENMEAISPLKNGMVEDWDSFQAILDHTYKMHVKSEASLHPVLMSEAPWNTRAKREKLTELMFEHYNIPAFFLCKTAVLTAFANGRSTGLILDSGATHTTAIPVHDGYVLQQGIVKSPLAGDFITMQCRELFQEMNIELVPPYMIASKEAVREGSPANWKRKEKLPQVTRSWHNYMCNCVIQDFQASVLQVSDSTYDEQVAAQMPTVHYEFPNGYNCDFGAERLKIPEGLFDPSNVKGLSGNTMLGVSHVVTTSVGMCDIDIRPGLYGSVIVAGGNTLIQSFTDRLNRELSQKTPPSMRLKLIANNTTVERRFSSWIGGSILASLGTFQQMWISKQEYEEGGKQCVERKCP
UniProt Q6DHV7: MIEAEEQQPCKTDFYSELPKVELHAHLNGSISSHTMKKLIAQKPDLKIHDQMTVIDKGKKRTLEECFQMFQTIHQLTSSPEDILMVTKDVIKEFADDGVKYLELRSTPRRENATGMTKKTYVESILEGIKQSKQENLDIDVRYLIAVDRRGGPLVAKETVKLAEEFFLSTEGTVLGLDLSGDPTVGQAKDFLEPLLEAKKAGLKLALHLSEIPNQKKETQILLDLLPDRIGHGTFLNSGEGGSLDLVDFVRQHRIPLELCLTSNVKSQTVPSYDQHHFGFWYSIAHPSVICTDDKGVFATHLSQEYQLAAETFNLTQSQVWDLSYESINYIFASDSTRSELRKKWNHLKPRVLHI
UniProt Q9GZN1, whole entry, looked up: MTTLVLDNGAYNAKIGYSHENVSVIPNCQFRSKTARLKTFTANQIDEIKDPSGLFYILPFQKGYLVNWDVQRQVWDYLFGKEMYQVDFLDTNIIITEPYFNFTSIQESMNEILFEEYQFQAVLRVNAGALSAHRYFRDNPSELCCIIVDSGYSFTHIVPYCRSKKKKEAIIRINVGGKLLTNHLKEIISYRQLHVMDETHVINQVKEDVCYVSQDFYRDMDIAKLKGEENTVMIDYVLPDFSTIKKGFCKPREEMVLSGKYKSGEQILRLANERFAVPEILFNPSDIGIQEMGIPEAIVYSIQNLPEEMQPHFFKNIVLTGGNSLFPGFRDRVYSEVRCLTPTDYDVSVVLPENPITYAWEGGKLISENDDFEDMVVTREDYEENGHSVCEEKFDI
UniProt P21399: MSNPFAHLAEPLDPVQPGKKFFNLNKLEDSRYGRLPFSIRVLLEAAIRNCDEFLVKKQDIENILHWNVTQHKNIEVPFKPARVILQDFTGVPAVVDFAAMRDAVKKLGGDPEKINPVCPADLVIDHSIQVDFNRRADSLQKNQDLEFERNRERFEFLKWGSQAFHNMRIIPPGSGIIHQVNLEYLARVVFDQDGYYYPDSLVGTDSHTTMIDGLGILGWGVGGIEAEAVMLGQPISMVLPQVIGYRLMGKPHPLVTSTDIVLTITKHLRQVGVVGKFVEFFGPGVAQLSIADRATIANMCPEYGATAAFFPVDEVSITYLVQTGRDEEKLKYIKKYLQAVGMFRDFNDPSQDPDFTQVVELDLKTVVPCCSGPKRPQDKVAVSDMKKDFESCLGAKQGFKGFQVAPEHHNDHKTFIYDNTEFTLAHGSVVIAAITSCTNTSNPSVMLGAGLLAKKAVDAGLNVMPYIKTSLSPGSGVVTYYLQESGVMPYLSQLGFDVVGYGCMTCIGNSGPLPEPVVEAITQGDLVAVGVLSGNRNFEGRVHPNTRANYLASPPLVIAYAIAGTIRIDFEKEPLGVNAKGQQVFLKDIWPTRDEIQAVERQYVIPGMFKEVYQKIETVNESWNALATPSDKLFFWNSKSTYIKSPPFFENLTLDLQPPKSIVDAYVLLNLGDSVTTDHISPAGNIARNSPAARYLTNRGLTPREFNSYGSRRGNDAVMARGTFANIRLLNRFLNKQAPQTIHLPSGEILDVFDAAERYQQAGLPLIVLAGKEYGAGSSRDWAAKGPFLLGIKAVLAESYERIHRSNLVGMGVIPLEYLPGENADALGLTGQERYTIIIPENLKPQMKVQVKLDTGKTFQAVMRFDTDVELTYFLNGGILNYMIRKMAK
UniProt Q7Z6V5: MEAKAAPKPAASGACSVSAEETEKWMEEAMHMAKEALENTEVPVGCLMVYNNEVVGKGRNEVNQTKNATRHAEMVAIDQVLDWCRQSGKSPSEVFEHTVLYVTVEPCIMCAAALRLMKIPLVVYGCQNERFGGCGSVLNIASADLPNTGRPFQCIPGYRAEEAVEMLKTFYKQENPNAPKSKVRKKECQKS
UniProt P49588, whole entry, looked up: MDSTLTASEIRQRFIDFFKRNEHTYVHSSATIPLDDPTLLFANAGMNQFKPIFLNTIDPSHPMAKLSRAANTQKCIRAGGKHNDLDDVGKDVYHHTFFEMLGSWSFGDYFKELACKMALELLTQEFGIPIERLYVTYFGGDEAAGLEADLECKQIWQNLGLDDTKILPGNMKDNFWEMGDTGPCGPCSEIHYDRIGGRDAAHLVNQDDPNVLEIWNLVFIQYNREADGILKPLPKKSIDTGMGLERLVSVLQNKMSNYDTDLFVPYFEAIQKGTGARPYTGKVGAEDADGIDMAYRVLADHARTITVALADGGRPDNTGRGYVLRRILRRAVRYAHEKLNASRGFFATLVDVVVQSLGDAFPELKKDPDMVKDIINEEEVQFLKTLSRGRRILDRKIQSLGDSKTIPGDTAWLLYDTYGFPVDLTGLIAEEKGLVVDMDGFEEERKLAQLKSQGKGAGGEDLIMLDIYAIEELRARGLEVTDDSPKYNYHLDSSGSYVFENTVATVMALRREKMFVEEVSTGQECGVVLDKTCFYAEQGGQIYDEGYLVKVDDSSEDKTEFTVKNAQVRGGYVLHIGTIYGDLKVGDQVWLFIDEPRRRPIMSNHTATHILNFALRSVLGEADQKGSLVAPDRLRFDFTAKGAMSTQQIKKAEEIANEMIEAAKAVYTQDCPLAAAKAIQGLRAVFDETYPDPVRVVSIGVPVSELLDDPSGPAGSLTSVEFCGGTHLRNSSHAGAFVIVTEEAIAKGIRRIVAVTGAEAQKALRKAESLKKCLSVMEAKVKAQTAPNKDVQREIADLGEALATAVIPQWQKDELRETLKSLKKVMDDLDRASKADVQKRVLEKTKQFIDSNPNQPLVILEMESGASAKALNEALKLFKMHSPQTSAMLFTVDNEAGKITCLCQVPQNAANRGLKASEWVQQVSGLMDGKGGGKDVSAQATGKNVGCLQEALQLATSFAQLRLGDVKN

log2 fold change, inactive:
ACACA isoform 4 (UniProt Q13085) -0.048
ACSS2 isoform 2 (UniProt Q9NR19) 0.004
ACOX1 isoform 2 (UniProt Q15067) -0.022
ACAT1 (UniProt P24752) -0.071
ACTR2 (UniProt P61160) 0.028
ACADS (UniProt P16219) -0.009
ADAM10 (UniProt O14672) 0.009
ABHD12 isoform 2 (UniProt Q8N2K0) 0.026
ADAR isoform 4 (UniProt P55265) -0.14
ACTR10 (UniProt Q9NZ32) -0.015
ABLIM1 (UniProt O14639) -0.07
ABCF3 (UniProt Q9NUQ8) -0.061
ABRAXAS2 (UniProt Q15018) -0.013
ACTA1 (UniProt P68133) -0.002
ADAM17 (UniProt P78536) -0.045
A2M (UniProt P01023) 0.559
ACADSB (UniProt P45954) 0.013
ACOT8 (UniProt O14734) -0.009
ABCC4 (UniProt O15439) -0.004
ACAD8 (UniProt Q9UKU7) -0.09
ACY1 (UniProt Q03154) 0.001
AASDHPPT (UniProt Q9NRN7) 0.006
ACTL6A (UniProt O96019) -0.056
ABCB7 isoform 2 (UniProt O75027) -0.026
ADAL (UniProt Q6DHV7) -0.015
ACTR6 (UniProt Q9GZN1) 0.006
ACO1 (UniProt P21399) -0.001
ACTR3 (UniProt P61158) 0.024
ABCD3 (UniProt P28288) -0.005
ACAA1 (UniProt P09110) -0.025
ABCE1 (UniProt P61221) 0.006
ADAT2 (UniProt Q7Z6V5) 0.002
ABCF1 (UniProt Q8NE71) 0.016
ACTN4 (UniProt O43707) 0.005
AARS (UniProt P49588) -0.002
ACTL8 (UniProt Q9H568) 0.068

A portion of the results above, as a working copy:
log2 fold change, inactive:
ABCE1 (UniProt P61221) 0.006
ADAT2 (UniProt Q7Z6V5) 0.002
